{"source": "PubChem BioAssay AID743458 | Peter MacCallum Cancer Centre | 2014", "aim": "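Retest earlier hits with independent siRNAs per gene for restoring vorinostat sensitivity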 (follow-up of hits)", "system": "human HCT116-VR colon cancer cells made resistant to vorinostat", "knock-down reagent": "single siRNA or pool against human genes, 25 nM per single siRNA", "time to read-out": "about 72 h after transfection, including 24 h of drug", "treatment": "vorinostat, 2.5 µM final, for 24 h", "detection": "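Cell viability by fluorescence and apoptosis by caspase 3/7 luminescence under vorinostat, background-corrected, averaged across two plate copies and given as fold change versus mock transfection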", "reading the numbers": "viability relative to mock: higher = more living cells than mock; caspase activity relative to mock: higher = more apoptosis than mock", "active means": "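Active means a reduced-viability or caspase-activation class, anything else inactive; classes could only be given to wells that looked healthy when left untreated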", "note": "This is an unselected part of about 1,800 deposited reagents. 732 of them (41%) count as active. 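Calls are per siRNA reagent; a gene was deemed confirmed only if most of its four siRNAs scored.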 A number with no mark means an inactive call. Reagents against one gene are numbered here. No sequences are given here."}
{"target": "PTPRS", "reagent": 1, "viability relative to mock": 0.62, "caspase activity relative to mock": 2.36, "viability hit class": "no change", "caspase hit class": "no change"}
{"target": "PTPRS", "reagent": 2, "viability relative to mock": "0.48 (active)", "caspase activity relative to mock": 0.94, "viability hit class": "reduced viability", "caspase hit class": "no change"}
{"target": "PTPRS", "reagent": 3, "viability relative to mock": 0.6, "caspase activity relative to mock": 1.04, "viability hit class": "no change", "caspase hit class": "no change"}
{"target": "PTPRS", "reagent": 4, "viability relative to mock": 0.94, "caspase activity relative to mock": 1.13, "viability hit class": "no change", "caspase hit class": "no change"}
{"target": "H1-5", "reagent": 1, "viability relative to mock": 0.73, "caspase activity relative to mock": 2.12, "viability hit class": "no change", "caspase hit class": "no change"}
{"target": "H1-5", "reagent": 2, "viability relative to mock": "0.22 (active)", "caspase activity relative to mock": 3.39, "viability hit class": "reduced viability", "caspase hit class": "caspase activation"}
{"target": "H1-5", "reagent": 3, "viability relative to mock": 0.29, "caspase activity relative to mock": 2.1, "viability hit class": "no change", "caspase hit class": "no change"}
{"target": "H1-5", "reagent": 4, "viability relative to mock": "0.6 (active)", "caspase activity relative to mock": 5.02, "viability hit class": "no change", "caspase hit class": "caspase activation"}
{"target": "ALMS1", "reagent": 1, "viability relative to mock": "0.31 (active)", "caspase activity relative to mock": 1.15, "viability hit class": "reduced viability", "caspase hit class": "no change"}
{"target": "ALMS1", "reagent": 2, "viability relative to mock": 1, "caspase activity relative to mock": 1.07, "viability hit class": "no change", "caspase hit class": "no change"}
{"target": "ALMS1", "reagent": 3, "viability relative to mock": 0.61, "caspase activity relative to mock": 1.82, "viability hit class": "no change", "caspase hit class": "no change"}
{"target": "ALMS1", "reagent": 4, "viability relative to mock": 0.8, "caspase activity relative to mock": 1.88, "viability hit class": "no change", "caspase hit class": "no change"}
{"target": "MAK16", "reagent": 1, "viability relative to mock": 0.68, "caspase activity relative to mock": 1.33, "viability hit class": "no change", "caspase hit class": "no change"}
{"target": "MAK16", "reagent": 2, "viability relative to mock": "0.68 (active)", "caspase activity relative to mock": 2.67, "viability hit class": "no change", "caspase hit class": "caspase activation"}
{"target": "MAK16", "reagent": 3, "viability relative to mock": "0.55 (active)", "caspase activity relative to mock": 1.27, "viability hit class": "reduced viability", "caspase hit class": "no change"}
{"target": "MAK16", "reagent": 4, "viability relative to mock": "0.46 (active)", "caspase activity relative to mock": 2.58, "viability hit class": "reduced viability", "caspase hit class": "caspase activation"}
{"target": "GCOM1", "reagent": 1, "viability relative to mock": "0.71 (active)", "caspase activity relative to mock": 5.83, "viability hit class": "no change", "caspase hit class": "caspase activation"}
{"target": "GCOM1", "reagent": 2, "viability relative to mock": "0.68 (active)", "caspase activity relative to mock": 3.23, "viability hit class": "no change", "caspase hit class": "caspase activation"}
{"target": "GCOM1", "reagent": 3, "viability relative to mock": 0.8, "caspase activity relative to mock": 1.04, "viability hit class": "no change", "caspase hit class": "no change"}
{"target": "GCOM1", "reagent": 4, "viability relative to mock": 0.82, "caspase activity relative to mock": 1.19, "viability hit class": "no change", "caspase hit class": "no change"}
{"target": "NCOA4", "reagent": 1, "viability relative to mock": 0.93, "caspase activity relative to mock": 2.36, "viability hit class": "no change", "caspase hit class": "no change"}
{"target": "NCOA4", "reagent": 2, "viability relative to mock": "0.22 (active)", "caspase activity relative to mock": 4.15, "viability hit class": "reduced viability", "caspase hit class": "caspase activation"}
{"target": "NCOA4", "reagent": 3, "viability relative to mock": "0.56 (active)", "caspase activity relative to mock": 1.45, "viability hit class": "reduced viability", "caspase hit class": "no change"}
{"target": "NCOA4", "reagent": 4, "viability relative to mock": 0.96, "caspase activity relative to mock": 1.12, "viability hit class": "no change", "caspase hit class": "no change"}
{"target": "EGFL6", "reagent": 1, "viability relative to mock": "0.74 (active)", "caspase activity relative to mock": 2.67, "viability hit class": "no change", "caspase hit class": "caspase activation"}
{"target": "EGFL6", "reagent": 2, "viability relative to mock": 1.18, "caspase activity relative to mock": 1.75, "viability hit class": "no change", "caspase hit class": "no change"}
{"target": "EGFL6", "reagent": 3, "viability relative to mock": "0.32 (active)", "caspase activity relative to mock": 1.88, "viability hit class": "reduced viability", "caspase hit class": "no change"}
{"target": "EGFL6", "reagent": 4, "viability relative to mock": 0.87, "caspase activity relative to mock": 1.06, "viability hit class": "no change", "caspase hit class": "no change"}
